Measurements taken from US20240101605A1.
No constants are given. Whether binding was seen depends on the method and setting. Some entries that bind do so weakly or less than the wild type.

Amino acid sequences for entries named in this document (tags omitted). A change or cut given only in a name is not applied to a line headed by its entry.
UniProt Q07108: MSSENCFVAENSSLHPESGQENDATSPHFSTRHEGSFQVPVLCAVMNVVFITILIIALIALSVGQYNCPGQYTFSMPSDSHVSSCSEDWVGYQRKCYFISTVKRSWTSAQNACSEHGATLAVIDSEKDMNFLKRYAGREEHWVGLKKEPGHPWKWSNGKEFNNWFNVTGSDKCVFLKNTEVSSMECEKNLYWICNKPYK

Molecular target: extracellular domain from human CD69 (human) (UniProt Q07108)
Assay: flow cytometry of the E. coli-displayed Z variant library after one round of MACS and three rounds of FACS; biotinylated hCD69 detected with a fluorescent streptavidin or neutravidin conjugate, surface expression with HSA-Alexa 647; the population is a library, and the gated cloud is assigned to ZC69078 by sequencing of 100 clones

binding: binds
B1: ZC69078 (designed binder)
Z variant displayed on E. coli cells: VDNKFNKEFYHAMKEILKLPNLNKYQKEAFKTSLKDDPSQSSELLSEAKQLNDSQAPK
